Laboratory results reported in the supplement of paper PMC8728848.
The other results are listed elsewhere or left out.

Columns and labels:
Test in all cases: glycan array binding signal (z-score within array); higher = stronger binding
Conditions in all cases: glycan notation: IUPAC condensed, linker removed
[1] = target: Gal(b1-4)GlcNAc(b1-3)Gal(b1-4)GlcNAc(b1-3)Gal(b1-4)GlcNAc(b1-3)Gal(b1-4)GlcNAc(b1-2)Man(a1-3)[Gal(b1-4)GlcNAc(b1-3)Gal(b1-4)GlcNAc(b1-3)Gal(b1-4)GlcNAc(b1-3)Gal(b1-4)GlcNAc(b1-2)Man(a1-6)]Man(b1-4)GlcNAc(b1-4)[Fuc(a1-6)]GlcNAc
How it was run: (§1)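 The binding signal is a Z-score computed within each array. Data were drawn from 3228 arrays in the Consortium for Functional Glycomics database, restricted to those with a known protein sequence. Scores were averaged over arrays of the same protein sequence at different concentrations or buffers, and over linkers, and negative values can be taken as non-binding.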

[2] = target: Gal(b1-4)GlcNAc(b1-3)Gal(b1-4)GlcNAc(b1-3)Gal(b1-4)GlcNAc(b1-3)Gal(b1-4)GlcNAc(b1-2)[Gal(b1-4)GlcNAc(b1-3)Gal(b1-4)GlcNAc(b1-3)Gal(b1-4)GlcNAc(b1-3)Gal(b1-4)GlcNAc(b1-6)]Man(a1-6)[Gal(b1-4)GlcNAc(b1-3)Gal(b1-4)GlcNAc(b1-3)Gal(b1-4)GlcNAc(b1-3)Gal(b1-4)GlcNAc(b1-2)Man(a1-3)]Man(b1-4)GlcNAc(b1-4)[Fuc(a1-6)]GlcNAc
How it was run: as §1

[3] = target: Gal(b1-4)GlcNAc(b1-3)Gal(b1-4)GlcNAc(b1-3)Gal(b1-4)GlcNAc(b1-3)Gal(b1-4)GlcNAc(b1-3)Gal(b1-4)GlcNAc(b1-2)Man(a1-3)[Gal(b1-4)GlcNAc(b1-3)Gal(b1-4)GlcNAc(b1-3)Gal(b1-4)GlcNAc(b1-3)Gal(b1-4)GlcNAc(b1-3)Gal(b1-4)GlcNAc(b1-2)Man(a1-6)]Man(b1-4)GlcNAc(b1-4)GlcNAc
How it was run: as §1

[4] = target: Gal(b1-4)GlcNAc(b1-3)Gal(b1-4)GlcNAc(b1-3)Gal(b1-4)GlcNAc(b1-3)Gal(b1-4)GlcNAc(b1-3)Gal(b1-4)GlcNAc(b1-2)Man(a1-3)[Gal(b1-4)GlcNAc(b1-3)Gal(b1-4)GlcNAc(b1-3)Gal(b1-4)GlcNAc(b1-3)Gal(b1-4)GlcNAc(b1-3)Gal(b1-4)GlcNAc(b1-2)Man(a1-6)]Man(b1-4)GlcNAc(b1-4)[Fuc(a1-6)]GlcNAc
How it was run: as §1

[5] = target: Gal(b1-4)GlcNAc(b1-3)Gal(b1-4)GlcNAc(b1-3)Gal(b1-4)GlcNAc(b1-3)Gal(b1-4)GlcNAc(b1-3)Gal(b1-4)GlcNAc(b1-2)[Gal(b1-4)GlcNAc(b1-3)Gal(b1-4)GlcNAc(b1-3)Gal(b1-4)GlcNAc(b1-3)Gal(b1-4)GlcNAc(b1-3)Gal(b1-4)GlcNAc(b1-6)]Man(a1-6)[Gal(b1-4)GlcNAc(b1-3)Gal(b1-4)GlcNAc(b1-3)Gal(b1-4)GlcNAc(b1-3)Gal(b1-4)GlcNAc(b1-3)Gal(b1-4)GlcNAc(b1-2)Man(a1-3)]Man(b1-4)GlcNAc(b1-4)[Fuc(a1-6)]GlcNAc
How it was run: as §1

[6] = target: Gal(b1-4)GlcNAc(b1-3)Gal(b1-4)GlcNAc(b1-3)Gal(b1-4)GlcNAc(b1-3)Gal(b1-4)GlcNAc(b1-3)Gal(b1-4)GlcNAc(b1-3)Gal(b1-4)GlcNAc(b1-2)Man(a1-3)[Gal(b1-4)GlcNAc(b1-3)Gal(b1-4)GlcNAc(b1-3)Gal(b1-4)GlcNAc(b1-3)Gal(b1-4)GlcNAc(b1-3)Gal(b1-4)GlcNAc(b1-3)Gal(b1-4)GlcNAc(b1-2)Man(a1-6)]Man(b1-4)GlcNAc(b1-4)GlcNAc
How it was run: as §1

[7] = target: Gal(b1-4)GlcNAc(b1-3)Gal(b1-4)GlcNAc(b1-3)GalNAc
How it was run: as §1

[8] = target: Gal(b1-4)GlcNAc(b1-3)Gal(b1-4)GlcNAc(b1-3)[Gal(b1-4)GlcNAc(b1-3)Gal(b1-4)GlcNAc(b1-6)]GalNAc
How it was run: as §1

[9] = target: Gal(b1-4)GlcNAc(b1-3)Gal(b1-4)GlcNAc(b1-6)[Gal(b1-3)]GalNAc
How it was run: as §1

[10] = target: Gal(b1-4)GlcNAc(b1-3)Gal(b1-4)[Fuc(a1-3)]GlcNAc(b1-3)Gal(b1-4)[Fuc(a1-3)]GlcNAc
How it was run: as §1

[11] = target: Gal(b1-4)GlcNAc(b1-3)GalNAc
How it was run: as §1

[12] = target: Gal(b1-4)GlcNAc(b1-3)[Fuc(a1-3)GlcNAc(b1-6)]Gal(b1-4)Glc
How it was run: as §1

[13] = target: Gal(b1-4)GlcNAc(b1-3)[Gal(b1-4)GlcNAc(b1-6)]Gal(b1-4)GlcNAc
How it was run: as §1

[14] = target: Gal(b1-4)GlcNAc(b1-3)[GlcNAc(b1-6)]Gal(b1-4)GlcNAc
How it was run: as §1

[15] = target: Gal(b1-4)GlcNAc(b1-6)Gal(b1-4)GlcNAc
How it was run: as §1

[16] = target: Gal(b1-4)GlcNAc(b1-6)GalNAc
How it was run: as §1

[17] = target: Gal(b1-4)GlcNAc(b1-6)[Gal(b1-3)]GalNAc
How it was run: as §1

[18] = target: Gal(b1-4)GlcNAc(b1-6)[Gal(b1-4)GlcNAc(b1-3)]GalNAc
How it was run: as §1

[19] = target: Gal(b1-4)GlcNAc6P
How it was run: as §1

[20] = target: Gal(b1-6)Gal
How it was run: as §1

[21] = target: Gal3S(b1-3)GalNAc
How it was run: as §1

[22] = target: Gal3S(b1-3)GlcNAc
How it was run: as §1

[23] = target: Gal3S(b1-3)[Fuc(a1-4)]GlcNAc
How it was run: as §1

B1: Lb MiSSP8 (Laccaria bicolor) (protein)
chain: MYFHTLFACATLMLITTAHASPTVINSLDSRKADLNGDVEARHAADWRRDSDWRRDSDWRRDSDWRRDSD
[1]
  glycan array binding signal (z-score): 0.996
[2]
  glycan array binding signal (z-score): 1.09
[3]
  glycan array binding signal (z-score): 1.02
[4]
  glycan array binding signal (z-score): 1.62
[5]
  glycan array binding signal (z-score): 0.809
[6]
  glycan array binding signal (z-score): -0.129
[7]
  glycan array binding signal (z-score): 0.43
[8]
  glycan array binding signal (z-score): 1.16
[9]
  glycan array binding signal (z-score): 0.423
[10]
  glycan array binding signal (z-score): -0.695
[11]
  glycan array binding signal (z-score): -0.833
[12]
  glycan array binding signal (z-score): 0.236
[13]
  glycan array binding signal (z-score): -0.129
[14]
  glycan array binding signal (z-score): 1.9
[15]
  glycan array binding signal (z-score): 0.085
[16]
  glycan array binding signal (z-score): -0.433
[17]
  glycan array binding signal (z-score): 1.32
[18]
  glycan array binding signal (z-score): -0.799
[19]
  glycan array binding signal (z-score): -0.64
[20]
  glycan array binding signal (z-score): -0.212
[21]
  glycan array binding signal (z-score): 0.092
[22]
  glycan array binding signal (z-score): 0.154
[23]
  glycan array binding signal (z-score): 0.409
